{
  "sequences": {"note": "Sequences of proteins named here, by UniProt entry; tags and fusion partners are left off.", "CUL4B, Q13620, UniProt Q13620, whole entry": "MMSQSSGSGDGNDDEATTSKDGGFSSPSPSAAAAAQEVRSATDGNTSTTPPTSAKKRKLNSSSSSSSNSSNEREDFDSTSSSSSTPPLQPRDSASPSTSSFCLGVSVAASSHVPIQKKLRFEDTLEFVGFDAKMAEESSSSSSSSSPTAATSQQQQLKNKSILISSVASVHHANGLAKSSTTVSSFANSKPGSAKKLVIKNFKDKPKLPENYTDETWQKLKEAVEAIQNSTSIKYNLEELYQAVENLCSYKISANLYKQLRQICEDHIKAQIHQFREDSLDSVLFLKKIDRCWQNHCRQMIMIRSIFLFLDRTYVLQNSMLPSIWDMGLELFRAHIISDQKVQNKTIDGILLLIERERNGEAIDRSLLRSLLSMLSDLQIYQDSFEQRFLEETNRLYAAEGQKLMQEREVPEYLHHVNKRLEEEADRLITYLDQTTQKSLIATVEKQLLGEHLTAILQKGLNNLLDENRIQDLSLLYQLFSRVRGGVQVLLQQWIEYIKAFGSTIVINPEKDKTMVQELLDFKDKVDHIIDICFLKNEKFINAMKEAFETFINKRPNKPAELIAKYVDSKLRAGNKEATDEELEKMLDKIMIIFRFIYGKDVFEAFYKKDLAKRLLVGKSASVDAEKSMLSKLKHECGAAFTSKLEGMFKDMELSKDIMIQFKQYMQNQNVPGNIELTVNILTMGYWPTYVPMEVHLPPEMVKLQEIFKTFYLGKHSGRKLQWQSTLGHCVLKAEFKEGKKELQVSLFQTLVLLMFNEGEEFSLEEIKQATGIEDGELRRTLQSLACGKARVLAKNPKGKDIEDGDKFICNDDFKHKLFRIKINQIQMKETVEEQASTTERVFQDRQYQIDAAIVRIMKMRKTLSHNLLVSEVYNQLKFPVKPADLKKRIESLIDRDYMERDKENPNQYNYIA", "PABPC4, Q13310, UniProt Q13310, whole entry": "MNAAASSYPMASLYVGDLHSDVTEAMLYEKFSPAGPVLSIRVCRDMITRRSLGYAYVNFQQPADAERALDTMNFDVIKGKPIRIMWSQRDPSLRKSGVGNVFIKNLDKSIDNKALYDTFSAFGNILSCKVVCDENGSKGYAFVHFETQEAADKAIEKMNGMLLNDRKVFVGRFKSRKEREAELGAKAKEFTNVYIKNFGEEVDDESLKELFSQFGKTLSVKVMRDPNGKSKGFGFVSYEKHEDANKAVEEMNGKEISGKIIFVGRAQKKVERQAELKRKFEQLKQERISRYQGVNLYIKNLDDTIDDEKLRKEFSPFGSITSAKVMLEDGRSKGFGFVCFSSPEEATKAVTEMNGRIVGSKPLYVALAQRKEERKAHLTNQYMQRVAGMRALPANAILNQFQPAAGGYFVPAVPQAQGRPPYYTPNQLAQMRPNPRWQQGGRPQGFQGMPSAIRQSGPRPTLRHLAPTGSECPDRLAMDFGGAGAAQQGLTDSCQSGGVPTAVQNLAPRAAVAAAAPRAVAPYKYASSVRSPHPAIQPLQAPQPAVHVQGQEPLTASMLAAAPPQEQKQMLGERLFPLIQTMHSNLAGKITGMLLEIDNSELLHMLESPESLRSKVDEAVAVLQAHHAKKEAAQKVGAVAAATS", "UROC1, Q96N76, UniProt Q96N76, whole entry": "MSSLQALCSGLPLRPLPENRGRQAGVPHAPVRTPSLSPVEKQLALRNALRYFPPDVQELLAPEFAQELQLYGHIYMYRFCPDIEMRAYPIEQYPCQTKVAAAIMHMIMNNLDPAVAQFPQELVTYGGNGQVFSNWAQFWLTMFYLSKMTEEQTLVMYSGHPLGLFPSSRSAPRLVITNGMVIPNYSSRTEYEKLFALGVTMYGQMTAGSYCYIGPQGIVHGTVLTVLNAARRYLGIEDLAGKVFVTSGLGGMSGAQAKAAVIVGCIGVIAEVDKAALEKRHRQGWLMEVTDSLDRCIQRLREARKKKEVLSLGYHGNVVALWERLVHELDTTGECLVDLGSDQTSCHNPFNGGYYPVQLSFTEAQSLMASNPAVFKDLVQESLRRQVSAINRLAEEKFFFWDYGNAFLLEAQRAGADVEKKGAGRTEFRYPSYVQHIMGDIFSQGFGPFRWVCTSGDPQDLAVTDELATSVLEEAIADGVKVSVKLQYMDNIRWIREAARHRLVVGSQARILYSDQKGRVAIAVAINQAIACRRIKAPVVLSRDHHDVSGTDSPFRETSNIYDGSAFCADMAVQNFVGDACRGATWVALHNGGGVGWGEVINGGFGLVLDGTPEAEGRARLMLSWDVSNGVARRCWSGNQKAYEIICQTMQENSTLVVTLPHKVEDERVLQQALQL"},
  "source": "the supplement of paper PMC10032668",
  "binders": {"B1": {"name": "RP11-12K22.1 (peptide)", "chain": "KVECGDGENTEVQKK"}},
  "test_in_all_cases": "PRISMA enrichment of interactor (LFQ) in peptide spot vs all other peptide spots (log2 fold change); higher = stronger / more specific binding of the interactor to the peptide",
  "key": {"ABCE1, P61221": {"biological_target": "ABCE1, P61221", "description": "(§1)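 PRISMA: 15-aa overlapping tiles (offset 8 aa) of 60 microproteins, plus SOS1/GLUT1 control peptides, were spot-synthesized on cellulose membranes in triplicate. Membranes were incubated with benzonase-treated HEK293T lysate, and bound proteins were identified by LC-MS/MS with LFQ. Enrichment is the log2 fold change of each protein in one spot versus all other spots. Only interactors passing the significance cutoff are listed.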"}, "ATP5F1D, P30049": {"biological_target": "ATP5F1D, P30049", "description": "as §1"}, "BRAT1, Q6PJG6": {"biological_target": "BRAT1, Q6PJG6", "description": "as §1"}, "COQ8A, Q8NI60": {"biological_target": "COQ8A, Q8NI60", "description": "as §1"}, "CORO1A, P31146": {"biological_target": "CORO1A, P31146", "description": "as §1"}, "CUL4B, Q13620": {"biological_target": "CUL4B, Q13620", "description": "as §1"}, "DDX56, Q9NY93": {"biological_target": "DDX56, Q9NY93", "description": "as §1"}, "DNAJB11, Q9UBS4": {"biological_target": "DNAJB11, Q9UBS4", "description": "as §1"}, "DSP, P15924": {"biological_target": "DSP, P15924", "description": "as §1"}, "EEFSEC, P57772": {"biological_target": "EEFSEC, P57772", "description": "as §1"}, "FKBP1A, P62942": {"biological_target": "FKBP1A, P62942", "description": "as §1"}, "FKBP4, Q02790": {"biological_target": "FKBP4, Q02790", "description": "as §1"}, "FMR1, Q06787": {"biological_target": "FMR1, Q06787", "description": "as §1"}, "HK2, P52789": {"biological_target": "HK2, P52789", "description": "as §1"}, "HM13, Q8TCT9": {"biological_target": "HM13, Q8TCT9", "description": "as §1"}, "MMTAG2, Q9BU76": {"biological_target": "MMTAG2, Q9BU76", "description": "as §1"}, "MRPS16, Q9Y3D3": {"biological_target": "MRPS16, Q9Y3D3", "description": "as §1"}, "MSH6, P52701": {"biological_target": "MSH6, P52701", "description": "as §1"}, "MYH10, P35580": {"biological_target": "MYH10, P35580", "description": "as §1"}, "NAMPT, P43490": {"biological_target": "NAMPT, P43490", "description": "as §1"}, "NTMT1, Q9BV86": {"biological_target": "NTMT1, Q9BV86", "description": "as §1"}, "OTUD4, Q01804": {"biological_target": "OTUD4, Q01804", "description": "as §1"}, "PABPC4, Q13310": {"biological_target": "PABPC4, Q13310", "description": "as §1"}, "PNO1, Q9NRX1": {"biological_target": "PNO1, Q9NRX1", "description": "as §1"}, "POP4, O95707": {"biological_target": "POP4, O95707", "description": "as §1"}, "PSMC2, P35998": {"biological_target": "PSMC2, P35998", "description": "as §1"}, "RBX1, P62877": {"biological_target": "RBX1, P62877", "description": "as §1"}, "RNF2, Q99496": {"biological_target": "RNF2, Q99496", "description": "as §1"}, "SAMHD1, Q9Y3Z3": {"biological_target": "SAMHD1, Q9Y3Z3", "description": "as §1"}, "SDF4, Q9BRK5": {"biological_target": "SDF4, Q9BRK5", "description": "as §1"}, "SEH1L, Q96EE3": {"biological_target": "SEH1L, Q96EE3", "description": "as §1"}, "SKP1, P63208": {"biological_target": "SKP1, P63208", "description": "as §1"}, "SURF6, O75683": {"biological_target": "SURF6, O75683", "description": "as §1"}, "UROC1, Q96N76": {"biological_target": "UROC1, Q96N76", "description": "as §1"}, "WDR12, Q9GZL7": {"biological_target": "WDR12, Q9GZL7", "description": "as §1"}},
  "note": "This is one part of the list. Only hits are listed; about a third recur on repeated control peptides.",
  "data": [
    {"binder": "B1", "values": [
      {"measurement": "PRISMA enrichment of interactor (log2)", "setting": "ABCE1, P61221", "value": 4.1},
      {"measurement": "PRISMA enrichment of interactor (log2)", "setting": "ATP5F1D, P30049", "value": 7.36},
      {"measurement": "PRISMA enrichment of interactor (log2)", "setting": "BRAT1, Q6PJG6", "value": 4.73},
      {"measurement": "PRISMA enrichment of interactor (log2)", "setting": "COQ8A, Q8NI60", "value": 4.9},
      {"measurement": "PRISMA enrichment of interactor (log2)", "setting": "CORO1A, P31146", "value": 5.61},
      {"measurement": "PRISMA enrichment of interactor (log2)", "setting": "CUL4B, Q13620", "value": 4.6},
      {"measurement": "PRISMA enrichment of interactor (log2)", "setting": "DDX56, Q9NY93", "value": 4.56},
      {"measurement": "PRISMA enrichment of interactor (log2)", "setting": "DNAJB11, Q9UBS4", "value": 5.48},
      {"measurement": "PRISMA enrichment of interactor (log2)", "setting": "DSP, P15924", "value": 4.76},
      {"measurement": "PRISMA enrichment of interactor (log2)", "setting": "EEFSEC, P57772", "value": 3.91},
      {"measurement": "PRISMA enrichment of interactor (log2)", "setting": "FKBP1A, P62942", "value": 5.98},
      {"measurement": "PRISMA enrichment of interactor (log2)", "setting": "FKBP4, Q02790", "value": 5.82},
      {"measurement": "PRISMA enrichment of interactor (log2)", "setting": "FMR1, Q06787", "value": 12.5},
      {"measurement": "PRISMA enrichment of interactor (log2)", "setting": "HK2, P52789", "value": 5.29},
      {"measurement": "PRISMA enrichment of interactor (log2)", "setting": "HM13, Q8TCT9", "value": 4.64},
      {"measurement": "PRISMA enrichment of interactor (log2)", "setting": "MMTAG2, Q9BU76", "value": 4.32},
      {"measurement": "PRISMA enrichment of interactor (log2)", "setting": "MRPS16, Q9Y3D3", "value": 4.88},
      {"measurement": "PRISMA enrichment of interactor (log2)", "setting": "MSH6, P52701", "value": 7.25},
      {"measurement": "PRISMA enrichment of interactor (log2)", "setting": "MYH10, P35580", "value": 6.28},
      {"measurement": "PRISMA enrichment of interactor (log2)", "setting": "NAMPT, P43490", "value": 9.36},
      {"measurement": "PRISMA enrichment of interactor (log2)", "setting": "NTMT1, Q9BV86", "value": 6.27},
      {"measurement": "PRISMA enrichment of interactor (log2)", "setting": "OTUD4, Q01804", "value": 6.8},
      {"measurement": "PRISMA enrichment of interactor (log2)", "setting": "PABPC4, Q13310", "value": 6.6},
      {"measurement": "PRISMA enrichment of interactor (log2)", "setting": "PNO1, Q9NRX1", "value": 5.18},
      {"measurement": "PRISMA enrichment of interactor (log2)", "setting": "POP4, O95707", "value": 7.25},
      {"measurement": "PRISMA enrichment of interactor (log2)", "setting": "PSMC2, P35998", "value": 6.43},
      {"measurement": "PRISMA enrichment of interactor (log2)", "setting": "RBX1, P62877", "value": 5.58},
      {"measurement": "PRISMA enrichment of interactor (log2)", "setting": "RNF2, Q99496", "value": 5.93},
      {"measurement": "PRISMA enrichment of interactor (log2)", "setting": "SAMHD1, Q9Y3Z3", "value": 10.2},
      {"measurement": "PRISMA enrichment of interactor (log2)", "setting": "SDF4, Q9BRK5", "value": 4.66},
      {"measurement": "PRISMA enrichment of interactor (log2)", "setting": "SEH1L, Q96EE3", "value": 5.09},
      {"measurement": "PRISMA enrichment of interactor (log2)", "setting": "SKP1, P63208", "value": 4.26},
      {"measurement": "PRISMA enrichment of interactor (log2)", "setting": "SURF6, O75683", "value": 9.09},
      {"measurement": "PRISMA enrichment of interactor (log2)", "setting": "UROC1, Q96N76", "value": 4.21},
      {"measurement": "PRISMA enrichment of interactor (log2)", "setting": "WDR12, Q9GZL7", "value": 4.59}
    ]}
  ]
}
